Results published in the supplement of paper PMC3334620.
In all, about 33,000 sequences were measured (“E-score (-0.5 to 0.5)”: median about -0.016, highest 2% from about 0.3 on). This is one part of the list.

biological target: T1, Yer184c (UniProt P39961); test: PBM E-score (8-mer binding enrichment) (E-score (-0.5 to 0.5)); higher = stronger / more preferred TF binding; conditions: protein concentration: 100 nM; construct: GST-full length
T1 sequence: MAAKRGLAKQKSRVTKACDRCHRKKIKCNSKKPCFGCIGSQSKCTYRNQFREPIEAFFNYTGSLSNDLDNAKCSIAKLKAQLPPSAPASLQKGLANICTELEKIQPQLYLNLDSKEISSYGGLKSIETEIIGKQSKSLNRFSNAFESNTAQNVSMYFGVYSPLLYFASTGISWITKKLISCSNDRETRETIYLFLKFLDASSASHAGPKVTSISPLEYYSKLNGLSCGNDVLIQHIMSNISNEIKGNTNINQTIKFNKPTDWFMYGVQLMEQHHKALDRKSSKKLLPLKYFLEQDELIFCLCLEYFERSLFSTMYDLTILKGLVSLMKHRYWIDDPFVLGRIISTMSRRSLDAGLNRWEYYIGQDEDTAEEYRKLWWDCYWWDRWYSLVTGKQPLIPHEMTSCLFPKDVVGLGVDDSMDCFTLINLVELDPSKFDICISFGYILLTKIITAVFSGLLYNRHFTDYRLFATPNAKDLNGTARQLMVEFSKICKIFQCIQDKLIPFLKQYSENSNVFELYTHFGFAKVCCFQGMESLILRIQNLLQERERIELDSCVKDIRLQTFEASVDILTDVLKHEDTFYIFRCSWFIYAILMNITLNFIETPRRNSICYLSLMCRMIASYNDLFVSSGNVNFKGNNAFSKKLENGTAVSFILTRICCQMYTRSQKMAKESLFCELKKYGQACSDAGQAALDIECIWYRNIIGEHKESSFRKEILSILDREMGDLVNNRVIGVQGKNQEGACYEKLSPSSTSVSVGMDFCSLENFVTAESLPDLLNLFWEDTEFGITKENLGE
Protocol: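 Universal 'all 10-mer' protein binding microarrays (Agilent AMADID 015681) probed with GST-tagged S. cerevisiae TFs (full-length or DBD) made by in vitro transcription/translation (PURExpress), about 100-200 nM. Bound TF was detected with fluorescent anti-GST. Each ungapped 8-mer (which stands for itself and its reverse complement) is scored by the PBM enrichment score (E-score), a modified Wilcoxon-Mann-Whitney statistic from -0.5 to +0.5, computed with the Universal PBM Analysis Suite. Scale: above 0.35 generally sequence-specific binding.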

Row | Sequence | PBM E-score
1 | CAGGGGTA | -0.243
2 | CGCTAGCG | -0.28
3 | TCTTCCCA | -0.159
4 | GCGACAGC | -0.104
5 | AAGATGCT | 0.00593
6 | AAGAATGA | 0.027
7 | CCCGTCCG | -0.128
8 | ACTCCAGC | -0.279
9 | CCAATCCA | -0.0477
10 | AAACTACC | 0.1
11 | ATTAATTA | 0.155
12 | AGGAGTGA | -0.116
13 | ACGTGGCC | -0.288
14 | CGTTTCGA | 0.0222
15 | CAACCCGA | 0.0679
16 | ACATGGCA | -0.0125
17 | ACATTGTG | -0.201
18 | ACGCGAAG | -0.039
19 | AAACACGG | 0.13
20 | AGAGGGGG | -0.432
21 | AAAGCTGG | -0.112
22 | AGAATTTG | 0.0863
23 | GTGTCAAC | -0.0844
24 | GTAGGAAA | -0.0963
25 | ATATATAC | 0.317

Row | Sequence | PBM E-score
26 | AGCTCCCG | -0.00473
27 | CATTCAAA | 0.246
28 | GCTCCGTA | 0.205
29 | ATGCAACA | -0.111
30 | CACAGTCG | -0.078
31 | AACCAGGG | -0.242
32 | TATATCCA | 0.00153
33 | AATTGTCT | 0.0418
34 | TACCGATA | 0.213
35 | AGGGTTGG | -0.0955
36 | CAATTTTA | 0.148
37 | AACCCAGC | -0.121
38 | GCGGACAC | 0.154
39 | GCCTATAA | -0.157
40 | GCCTCAGA | -0.0395
41 | CGAACTCC | 0.223
42 | CAACCCCG | -0.209
43 | GAAGATGC | -0.209
44 | AATACAAA | 0.216
45 | ACGCGGTG | -0.0857
46 | CCGATATC | 0.207
47 | AAGGGCTG | -0.171
48 | CGCCAAAC | -0.0605
49 | GAACCTAA | 0.0783
50 | GGAGGGAA | -0.112

Row | Sequence | PBM E-score
51 | CAGACAGG | -0.15
52 | GGCGATCA | -0.117
53 | CCTATACC | -0.213
54 | AGATTGGA | -0.0327
55 | CTCGCCCA | -0.128
56 | CATTGCAA | -0.0846
57 | TAAAGCAA | 0.067
58 | AATGCCGT | 0.304
59 | AGGACGAA | 0.189
60 | CATGAGCC | -0.184
61 | AATCACTA | 0.0701
62 | ATTGGGGA | -0.291
63 | CGCAGTAG | -0.13
64 | CTAGTGAC | -0.034
65 | AGCCTTCA | 0.0123
66 | TGCAGCCA | -0.181
67 | AATTGCCA | -0.0138
68 | CCATAGCG | -0.124
69 | ATTGTCCG | 0.345
70 | CGCATCGA | -0.0801
71 | AACACCTC | -0.197
72 | AGCCAGCT | -0.0655
73 | TATCACCA | -0.0574
74 | GGTACAAA | 0.054
75 | CTCGATGA | -0.0127

Row | Sequence | PBM E-score
76 | CTAGAGGC | -0.223
77 | CCGTCTCG | 0.159
78 | GTGCCGGA | 0.305
79 | GCTTAACC | -0.0768
80 | AACCACTA | -0.127
81 | GGACGGGA | -0.0652
82 | GAGTAAGA | 0.151
83 | ATCACGGC | 0.197
84 | AGTGACGC | -0.0974
85 | AATATGAT | 0.197
86 | GTTCCTGA | -0.215
87 | CGCTTTTA | 0.205
88 | ACGATCGA | 0.118
89 | AGTGCAGC | 0.051
90 | CGCATAAC | -0.0147
91 | ATTACGTC | 0.0645
92 | AACTTGCT | -0.0918
93 | TATTCCGA | 0.389
94 | ACCTGGAG | -0.13
95 | TACTGCAA | 0.0176
96 | CGAAACAC | 0.232
97 | GACTTCCC | -0.0878
98 | GCTCGACA | -0.177
99 | CAGGCCTC | -0.339
100 | CACGATTC | 0.0028

Row | Sequence | PBM E-score
101 | AACAAGGC | -0.1
102 | ACACGTGG | -0.112
103 | AGATGCTA | -0.176
104 | AAATGCAT | 0.145
105 | ATGACAGG | -0.182
106 | GGCATAAC | 0.0601
107 | AACATGGG | -0.0331
108 | CTGTCGGA | 0.177
109 | ACAAGTCA | -0.147
110 | TACAGTGA | -0.0321
111 | ACCCTTGG | -0.329
112 | TCCAGCCA | -0.23
113 | AGCAAGGC | -0.145
114 | CCAATCGC | -0.072
115 | TGCAGGCA | -0.21
116 | CCGAGCCA | 0.219
117 | TCAGGAAA | 0.112
118 | ATATTGGA | 0.0393
119 | AAGTGATC | 0.105
120 | CTCGGTCA | 0.167
121 | GATTACGC | 0.0704
122 | ACCCGGGG | 0.0702
123 | TAGTGGGA | -0.112
124 | AGACAATA | 0.0776
125 | ACCGCTAA | 0.0952

Row | Sequence | PBM E-score
126 | CATTATCA | 0.0221
127 | AGCGAAAG | -0.153
128 | AATTTAAT | 0.271
129 | GCGAGAGC | 0.0469
130 | GCAAATGA | 0.0246
131 | AATTTGCT | 0.0712
132 | CAAATGCA | -0.0434
133 | TAGTATGA | 0.129
134 | CGAAAGAG | 0.114
135 | GACCAACA | 0.206
136 | ATAGAAGA | 0.0239
137 | ACATAGGT | -0.138
138 | GCATCATA | 0.214
139 | TCATAGAA | 0.129
140 | GACGATAC | -0.0374
141 | GAAAGTAC | -0.0441
142 | AGAGCCCC | -0.316
143 | CCACATAC | -0.0895
144 | ACACTTGA | -0.247
145 | CCTACGCC | -0.297
146 | AGAGCGAG | -0.0354
147 | GTAGACGA | 0.0625
148 | ACACACCA | -0.218
149 | ATCACGCC | -0.00795
150 | GAGAACAC | -0.0879

Row | Sequence | PBM E-score
151 | CGCCATAA | 0.13
152 | GAACCACA | 0.00592
153 | TCGAAGCA | 0.0213
154 | ATAAGTCC | 0.147
155 | ACCCAGAT | -0.0253
156 | GACGTGAC | -0.0956
157 | CGGACGTC | 0.189
158 | GGAGCGAA | 0.069
159 | ATGGCATC | -0.0291
160 | AGATTTCA | 0.0496
161 | GTATTTGA | 0.0371
162 | ATCTATTC | 0.0275
163 | TATTAAGA | 0.0986
164 | CCTGTTCC | -0.0466
165 | CGTCGCAC | -0.00563
166 | ACGGGATG | -0.0538
167 | CGGTACGC | 0.114
168 | GGGCAGTA | -0.144
169 | GGGTCACA | -0.191
170 | AACTGCTA | -0.141
171 | GAAAGCGA | 0.066
172 | AGCCTCTG | -0.37

Seven records picked at random from those above, as already listed:
Row | Sequence | PBM E-score
167 | CGGTACGC | 0.114
157 | CGGACGTC | 0.189
164 | CCTGTTCC | -0.0466
152 | GAACCACA | 0.00592
151 | CGCCATAA | 0.13
169 | GGGTCACA | -0.191
161 | GTATTTGA | 0.0371
